Measured values reported in paper PMC8509676, “Residual Helicity at the Active Site of the Histidine Phosphocarrier, HPr, Modulates Binding Affinity to Its Natural Partners” (International Journal of Molecular Sciences, 2021).
These are yes or no findings as the source states them, for the method shown. For some of these results: Tags and fused reporters may be left off the sequences shown. One block for each binder: values may come before it.

Assays:
Test in all cases: DOSY NMR (translational diffusion); peptide alone, 70–120 µM, 100% D2O, 50 mM Tris pH 7.2, 10 °C; Rh by comparison with dioxane; both purified
[1] = molecular target: HPr^9–30 P18A peptide (Streptomyces coelicolor)
[2] = molecular target: HPr^9–30 F22A peptide (Streptomyces coelicolor)
[3] = molecular target: HPr^9–30 I21A peptide (Streptomyces coelicolor)
[4] = molecular target: HPr^9–30 P18A/I21A/V23A peptide (Streptomyces coelicolor)
[5] = molecular target: HPr^9–30 wild-type peptide (residues 9-30 of HPr from Streptomyces coelicolor) (Streptomyces coelicolor)
[6] = molecular target: HPr^9–30 V23A peptide (Streptomyces coelicolor)
[7] = molecular target: HPr^9–30 P18A/I21A/F22A/V23A peptide (Streptomyces coelicolor)

- binding [1]: no binding (tested: 70 and 120 µM)
Binder: GWAEGLHARAASIFVRAATATG (acetylated at the N-terminus; amidated at the C-terminus) [HPr^9–30 P18A peptide]

- binding [2]: no binding (tested: 70 and 120 µM)
Binder: GWAEGLHARPASIAVRAATATG (acetylated at the N-terminus; amidated at the C-terminus) [HPr^9–30 F22A peptide]

- binding [3]: no binding (tested: 70 and 120 µM)
Binder: GWAEGLHARPASAFVRAATATG (acetylated at the N-terminus; amidated at the C-terminus) [HPr^9–30 I21A peptide]

- binding [4]: no binding (tested: 70 and 120 µM)
Binder: GWAEGLHARAASAFARAATATG (acetylated at the N-terminus; amidated at the C-terminus) [HPr^9–30 P18A/I21A/V23A peptide]

- binding [5]: no binding (tested: 70 and 120 µM)
Binder: GWAEGLHARPASIFVRAATATG (acetylated at the N-terminus; amidated at the C-terminus) [HPr^9–30 wild-type peptide (residues 9-30 of HPr from Streptomyces coelicolor)]

- binding [6]: no binding (tested: 70 and 120 µM)
Binder: GWAEGLHARPASIFARAATATG (acetylated at the N-terminus; amidated at the C-terminus) [HPr^9–30 V23A peptide]

- binding [7]: no binding (tested: 70 and 120 µM)
Binder: GWAEGLHARAASAAARAATATG (acetylated at the N-terminus; amidated at the C-terminus) [HPr^9–30 P18A/I21A/F22A/V23A peptide]
